The text below walks through data of patent US20160176855A1, “Novel Sterically Hindered Cyclic Amines” (CLARIANT INTERNATIONAL LTD, priority 2013, published 2016).

The structures appear in SMILES notation.

The nature of this series: Charpy notched impact resistance of PEEK with additive (ISO 179/1eA). As to conditions: PEEK (Vestakeep 2000G) with 0.4% by weight additive, T=23° C. As to the method:
Determination of Charpy impact properties of PEEK with and without additives based on the compounds of the invention, including comparison with Nylostab S-EED.
Charpy notched impact resistance is the impact energy absorbed when a notched test specimen fractures, divided by the initial cross-sectional area of the test specimen at the notch side. Procedure as in DIN EN ISO 179-1.
The test specimens of the PEEK polymer were prepared from the corresponding pellets by using a heated press to apply a pressure of 50 bar at a temperature of 390° C. The pellets here were applied uniformly to the preheated lower plate within a metal frame of thickness 4 mm (internal dimensions 200×200 mm), and then the polymer was exposed in the melt to the abovementioned pressure for 10 min. After slow depressurization and cooling, the sheet, which was visually homogeneous, was cut to give individual smaller rectangular specimen sections of thickness 4 mm, length 80 mm, and width 10 mm. In order to minimize variance, 10 of these rectangular specimen sections were used for each measurement.
Specimens of this type were prepared a) without further additive, b) with 0.4% by weight of Nylostab S-EED, and c) with 0.4% by weight of an additive of the invention.
The notched impact resistance tests, which allow conclusions to be drawn concerning the behavior of the plastics specimen on exposure to short-term mechanical impact stress, used a 3/76-50 pendulum impact tester from Feinmechanik Kögel, Leipzig (FIG. 1).
The conditions for the 16-hour conditioning of the specimens and of the measurements were: 23° C. and 50% rel. humidity.
Once the pendulum impact tester had been switched on, the respective current measurement parameters were input, alongside the batch numbers. […] The notched impact energy W in kilojoules/m^2 is thus determined for the PEEK polymer at 23° C. in accordance with the following equation: […]
The predried PEEK powder was charged by way of a hopper preheated to T=180° C. […] The quantities were judged to give a final total concentration of 0.4% by weight of additive. […]
The compound `CC1(C)CC(NC(=O)c2ccc(C(=O)NC3CC(C)(C)NC(C)(C)C3)o2)CC(C)(C)N1` [Example 2, N,N′-bis(2,2,6,6-tetramethyl-4-piperidinyl)-2,5-furandicarboxamide] came in with a Notched impact resistance of 9.0 kJ/m^2. The same measure for `CC1(C)CC(NC(=O)c2cccc(C(=O)NC3CC(C)(C)NC(C)(C)C3)c2)CC(C)(C)N1` [Nylostab S-EED, N,N′-bis(2,2,6,6-tetramethyl-4-piperidinyl)-1,3-benzenedicarboxamide, reference compound]: 7.8 kJ/m^2; for `CC1(C)CC(OC(=O)c2ccc(C(=O)OC3CC(C)(C)NC(C)(C)C3)o2)CC(C)(C)N1` [Example 7, N,N′-bis(2,2,6,6-tetramethyl-4-piperidinyl) 2,5-furandicarboxylate]: 8.8 kJ/m^2.
